Experimental findings from publication PMC4039310 (Molecular Systems Biology, 2013) are described below.

The subject of this series is PC9 cells. The experiment in a line: Phosphotyrosine proteomics (phosphopeptide immunoprecipitation, nano-LC-MS/MS) with erlotinib. Type of series: cell-based, human. As to conditions: 1 μM, 1 h vs DMSO.

With `C#Cc1cccc(Nc2ncnc3cc(OCCOC)c(OCCOC)cc23)c1` [Erlotinib, erlotinib], the “unique phosphotyrosine sites significantly perturbed” value was 66 and the “unique proteins with significantly perturbed phosphotyrosine sites” value came to 35.
